Values from PubChem BioAssay AID1259405 (NCATS, 2018)
Test: 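Silenced genes that increase secreted GFP made by CHO cells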 (primary screen). Cell system: Chinese hamster CHO-K1 ovary cells with stable secreted eGFP expression. Knock-down reagent: single siRNA against mouse genes, 0.8 pmol siRNA per well (2 µl of 400 nM stock). Time to read-out: 3 days. Read-out: 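Percent of the per-plate non-targeting control median for intracellular GFP per well by laser scanning cytometry and for cell viability by ATP luminescence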. Reading the numbers: GFP, % of control: higher = more GFP per well, higher productivity; viability (ATP), % of control: higher = more viable cells (more ATP). Hit rule: 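Called active when intracellular GFP, relative to negative control, is at or above 120%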.
Shown is one part, drawn at random, of about 50,000 reagents tested. Over the whole deposit, about 4,000 (8%) are marked active. 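Mouse siRNA library applied to hamster cells; one well for each siRNA.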 Reagents against one gene are numbered here.

| gene | reagent no. | GFP, % of control | viability (ATP), % of control | call |
| --- | --- | --- | --- | --- |
| Tmem9b (GeneID 56786) | 1 | 43.8 | 55.7 | inactive |
| Tmem9b (GeneID 56786) | 2 | 29.8 | 63.2 | inactive |
| Tmem9b (GeneID 56786) | 3 | 68.1 | 74.2 | inactive |
| B3gnt4 (GeneID 231727) | 1 | 150 | 94 | active |
| B3gnt4 (GeneID 231727) | 2 | 87.8 | 131 | inactive |
| B3gnt4 (GeneID 231727) | 3 | 78.2 | 100 | inactive |
| Dapk2 (GeneID 13143) | 1 | 140 | 102 | active |
| Foxh1 (GeneID 14106) | 1 | 104 | 74.2 | inactive |
| Foxh1 (GeneID 14106) | 2 | 66.1 | 63.9 | inactive |
| Acp5 (GeneID 11433) | 1 | 98.6 | 85.3 | inactive |
| Acp5 (GeneID 11433) | 2 | 82.5 | 56.5 | inactive |
| Acp5 (GeneID 11433) | 3 | 112 | 58.5 | inactive |
| Slmap (GeneID 83997) | 1 | 69 | 72 | inactive |
| Slmap (GeneID 83997) | 2 | 100 | 58.8 | inactive |
| Slmap (GeneID 83997) | 3 | 66.4 | 71.3 | inactive |
| Anapc16 (GeneID 52717) | 1 | 66.1 | 77.9 | inactive |
| Anapc16 (GeneID 52717) | 2 | 54.1 | 56.3 | inactive |
| Anapc16 (GeneID 52717) | 3 | 86.9 | 136 | inactive |
| Slc7a5 (GeneID 20539) | 1 | 77.4 | 41.5 | inactive |
| Slc7a5 (GeneID 20539) | 2 | 45.9 | 32.7 | inactive |
| Slc7a5 (GeneID 20539) | 3 | 96.7 | 77.3 | inactive |
| Cuedc1 (GeneID 103841) | 1 | 90.7 | 108 | inactive |
| Cuedc1 (GeneID 103841) | 2 | 115 | 78.5 | inactive |
| Cuedc1 (GeneID 103841) | 3 | 97.1 | 112 | inactive |
| Xylt2 (GeneID 217119) | 1 | 81.1 | 98 | inactive |
| Xylt2 (GeneID 217119) | 2 | 60.8 | 62.5 | inactive |
| Xylt2 (GeneID 217119) | 3 | 76 | 96.8 | inactive |
| Itgb5 (GeneID 16419) | 1 | 66.4 | 121 | inactive |
| Itgb5 (GeneID 16419) | 2 | 95.7 | 98.2 | inactive |
| Retreg2 (GeneID 227298) | 1 | 51.8 | 59.5 | inactive |
| Retreg2 (GeneID 227298) | 2 | 82.5 | 89.5 | inactive |
| Retreg2 (GeneID 227298) | 3 | 114 | 146 | inactive |
| Ccm2 (GeneID 216527) | 1 | 80.4 | 60.4 | inactive |
| Ccm2 (GeneID 216527) | 2 | 94.9 | 87.1 | inactive |
| Ccm2 (GeneID 216527) | 3 | 74.8 | 90.2 | inactive |
| Cabp1 (GeneID 29867) | 1 | 86.3 | 71.2 | inactive |
| Cabp1 (GeneID 29867) | 2 | 96.8 | 64.6 | inactive |
| Cabp1 (GeneID 29867) | 3 | 83.1 | 70.5 | inactive |
| Tapbpl (GeneID 213233) | 1 | 94.7 | 59.2 | inactive |
| Tapbpl (GeneID 213233) | 2 | 75.8 | 92.1 | inactive |
| Tapbpl (GeneID 213233) | 3 | 41.4 | 61.5 | inactive |
| Ca8 (GeneID 12319) | 1 | 71.6 | 57.5 | inactive |
| Ca8 (GeneID 12319) | 2 | 105 | 94 | inactive |
| Chl1 (GeneID 12661) | 1 | 70.8 | 65.3 | inactive |
| Chl1 (GeneID 12661) | 2 | 85.3 | 55.2 | inactive |
| Il6 (GeneID 16193) | 1 | 127 | 137 | active |
| Il6 (GeneID 16193) | 2 | 107 | 89 | inactive |
| Cxcl11 (GeneID 56066) | 1 | 93.8 | 93.4 | inactive |
| Cxcl11 (GeneID 56066) | 2 | 58.4 | 73.8 | inactive |
| Vegfd (GeneID 14205) | 1 | 67.5 | 65.7 | inactive |
| Vegfd (GeneID 14205) | 2 | 85 | 83.4 | inactive |
| Vegfd (GeneID 14205) | 3 | 76.1 | 67 | inactive |
| Ifnb1 (GeneID 15977) | 1 | 75.7 | 96 | inactive |
| Ifnb1 (GeneID 15977) | 2 | 72.2 | 55.8 | inactive |
| Or5d39 (GeneID 258291) | 1 | 35.5 | 49.2 | inactive |
| Or5d39 (GeneID 258291) | 2 | 109 | 62.6 | inactive |
| Or5d39 (GeneID 258291) | 3 | 59.9 | 78.3 | inactive |
| Zng1 (GeneID 226043) | 1 | 44.3 | 72.1 | inactive |
| Zng1 (GeneID 226043) | 2 | 58.9 | 96 | inactive |
| Zng1 (GeneID 226043) | 3 | 120 | 122 | inactive |
| Omd (GeneID 27047) | 1 | 161 | 133 | active |
| Omd (GeneID 27047) | 2 | 94.2 | 80.9 | inactive |
| Omd (GeneID 27047) | 3 | 88.1 | 89 | inactive |
| Dusp21 (GeneID 73547) | 1 | 88.4 | 59.4 | inactive |
| Dusp21 (GeneID 73547) | 2 | 83.7 | 85.7 | inactive |
| Dusp21 (GeneID 73547) | 3 | 74.1 | 98.6 | inactive |
| Prss3 (GeneID 22073) | 1 | 114 | 100 | inactive |
| Prss3 (GeneID 22073) | 2 | 67.8 | 68.4 | inactive |
| Prss3 (GeneID 22073) | 3 | 95.6 | 103 | inactive |
| Acadvl (GeneID 11370) | 1 | 76.8 | 66.5 | inactive |
| Acadvl (GeneID 11370) | 2 | 61.8 | 55.4 | inactive |
| Acadvl (GeneID 11370) | 3 | 71.4 | 79.8 | inactive |
| F5 (GeneID 14067) | 1 | 81.7 | 61.3 | inactive |
| F5 (GeneID 14067) | 2 | 88.6 | 73.9 | inactive |
| Commd10 (GeneID 69456) | 1 | 58.5 | 76.4 | inactive |
| Commd10 (GeneID 69456) | 2 | 67.7 | 71.7 | inactive |
| Commd10 (GeneID 69456) | 3 | 92.2 | 136 | inactive |
| Vmn1r15 (GeneID 113863) | 1 | 92.5 | 63.2 | inactive |
| Vmn1r15 (GeneID 113863) | 2 | 73.8 | 58.6 | inactive |
| Vmn1r15 (GeneID 113863) | 3 | 50.6 | 72.7 | inactive |
| Pdcd7 (GeneID 50996) | 1 | 58.3 | 14.7 | inactive |
| Pdcd7 (GeneID 50996) | 2 | 97.9 | 65.1 | inactive |
| Pdcd7 (GeneID 50996) | 3 | 72.7 | 59.1 | inactive |
| Pla2g4a (GeneID 18783) | 1 | 66.2 | 78.2 | inactive |
| Pla2g4a (GeneID 18783) | 2 | 63.5 | 57.6 | inactive |
| Pla2g4a (GeneID 18783) | 3 | 95.5 | 107 | inactive |

Records listed so far with an active call, once more:
| gene | reagent no. | GFP, % of control | viability (ATP), % of control | call |
| --- | --- | --- | --- | --- |
| B3gnt4 (GeneID 231727) | 1 | 150 | 94 | active |
| Dapk2 (GeneID 13143) | 1 | 140 | 102 | active |
| Il6 (GeneID 16193) | 1 | 127 | 137 | active |
| Omd (GeneID 27047) | 1 | 161 | 133 | active |
